Assay [1] deals with recombinant amino-terminally polyhistidine-tagged CRASP-4 (ErpC) of B. burgdorferi (B. burgdorferi (strain LW2, erpC identical to type strain B31)) (UniProt Q44790). Put plainly: ELISA; CRASP-4 (5 μg/mL) coated on microtiter plates; equimolar amounts (33 μM) of CFH, CFHR1, CFHR2 or CFHR5 added for 1 h at RT; detection with goat CFH antiserum or MAb JHD 7.10; both purified. (In an ELISA, binding on a coated surface is turned into a signal by an enzyme label.)

By UniProt entry, the sequences of proteins in these tests, tags left out. Residues count along the entry.
UniProt Q03591, residues 19-330: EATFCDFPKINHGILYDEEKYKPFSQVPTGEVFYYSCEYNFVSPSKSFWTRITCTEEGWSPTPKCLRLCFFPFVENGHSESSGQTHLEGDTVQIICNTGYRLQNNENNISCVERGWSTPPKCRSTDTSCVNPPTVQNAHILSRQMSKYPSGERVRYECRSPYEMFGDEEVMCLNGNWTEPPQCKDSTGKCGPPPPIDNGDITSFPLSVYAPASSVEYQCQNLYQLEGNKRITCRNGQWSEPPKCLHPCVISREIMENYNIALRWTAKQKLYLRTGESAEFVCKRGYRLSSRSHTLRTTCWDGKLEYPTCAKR
UniProt P36980, residues 19-270: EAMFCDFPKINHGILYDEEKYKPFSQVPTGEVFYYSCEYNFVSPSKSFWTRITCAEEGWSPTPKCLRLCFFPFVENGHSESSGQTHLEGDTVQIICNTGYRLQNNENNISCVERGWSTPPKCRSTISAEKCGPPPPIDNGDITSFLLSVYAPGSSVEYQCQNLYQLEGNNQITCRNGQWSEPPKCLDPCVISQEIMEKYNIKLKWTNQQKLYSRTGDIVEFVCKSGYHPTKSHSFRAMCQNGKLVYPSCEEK

Assay [2] deals with CRASP-4 (ErpC) ectopically produced in B. garinii G1/pCRASP-4 (B. burgdorferi (strain LW2, erpC identical to type strain B31)) (UniProt Q44790). In words: serum adsorption assay on live bacteria; 1 × 10^9 borrelial cells in 750 μL NHS with 34 mM EDTA for 1 h, washed with PBS 0.01% Tween 20, bound proteins eluted with 100 mM glycine-HCl pH 2.0; Western blot with polyclonal anti-CFHR1 antiserum. A general note: A western blot detects proteins with antibodies after separation by electrophoresis.

The target in assay [3] is recombinant amino-terminally polyhistidine-tagged CRASP-4 (ErpC) of B. burgdorferi (B. burgdorferi (strain LW2, erpC identical to type strain B31)) (UniProt Q44790). In words: pull-down; purified His-tagged CRASP-4 (20 μg) on Dynabeads TALON magnetic beads, incubated with NHS 1 h on ice, washed with 50 mM phosphate, 300 mM NaCl, 0.01% Tween 20, eluted with 100 mM glycine-HCl pH 2.0; silver stain and Western blot, nonreducing SDS-PAGE; only the target purified.

Assay [4] addresses CRASP-4 (ErpC) ectopically produced in B. garinii G1/pCRASP-4 (B. burgdorferi (strain LW2, erpC identical to type strain B31)) (UniProt Q44790). Put plainly: serum adsorption assay on live bacteria; 1 × 10^9 borrelial cells in 750 μL NHS with 34 mM EDTA for 1 h, washed with PBS 0.01% Tween 20, bound proteins eluted with 100 mM glycine-HCl pH 2.0; Western blot with polyclonal anti-CFHR1 antiserum. The source holds these as a separate data set.

Read-outs that look alike come from different tables or passages of the source. These are yes or no findings as the source states them, for the method shown. A result given as binding can be weak or reduced; the word gives no strength. For part of these data: In cells and extracts the contact can be indirect.

“recombinant CFHR1 (from UniProt Q03591 19-330)”: in assay [1], the binding result was “binds”.

Regarding “recombinant CFHR2 (from UniProt P36980 19-270)”, the binding entry in assay [1] is on record as “binds”.

On to “CFH-related protein 1 (CFHR1) of normal human serum (from UniProt Q03591 19-330)”, for which the binding result in assay [2] and in assay [3] was “binds” each time.

In the case of “CFH-related protein 2 (CFHR2) of normal human serum (from UniProt P36980 19-270)”, the binding entry in assay [2] and in assay [3] was “binds” throughout.

B1: CFH-related protein 5 (CFHR5) of normal human serum (protein, UniProt Q9BXR6 19-569)
chain: EGTLCDFPKIHHGFLYDEEDYNPFSQVPTGEVFYYSCEYNFVSPSKSFWTRITCTEEGWSPTPKCLRMCSFPFVKNGHSESSGLIHLEGDTVQIICNTGYSLQNNEKNISCVERGWSTPPICSFTKGECHVPILEANVDAQPKKESYKVGDVLKFSCRKNLIRVGSDSVQCYQFGWSPNFPTCKGQVRSCGPPPQLSNGEVKEIRKEEYGHNEVVEYDCNPNFIINGPKKIQCVDGEWTTLPTCVEQVKTCGYIPELEYGYVQPSVPPYQHGVSVEVNCRNEYAMIGNNMITCINGIWTELPMCVATHQLKRCKIAGVNIKTLLKLSGKEFNHNSRIRYRCSDIFRYRHSVCINGKWNPEVDCTEKREQFCPPPPQIPNAQNMTTTVNYQDGEKVAVLCKENYLLPEAKEIVCKDGRWQSLPRCVESTAYCGPPPSINNGDTTSFPLSVYPPGSTVTYRCQSFYKLQGSVTVTCRNKQWSEPPRCLDPCVVSEENMNKNNIQLKWRNDGKLYAKTGDAVEFQCKFPHKAMISSPPFRAICQEGKFEYPICE
With B1, the binding result in assay [3] was “binds”; in assay [4] it was “binds weakly”.

B2: recombinant CFHR5 (protein, UniProt Q9BXR6 19-569)
chain: B1 chain
Regarding B2, in assay [1], the binding result was “binds”.

The values are drawn from paper PMC3287035.
